Results from patent publication US5448062A (priority 1993, dated 1995).
Like-named read-outs stand apart in the source and are kept apart here.

Legend:
[1] = Membrane/metal jet separator / single quadrupole mass spectrometer detection
[2] = S/N = 3; aqueous mixtures; DIMP ion trap; membrane 30° C.
[3] = Pneumatically-assisted coaxial membrane/quartz jet separator / ion trap mass spectrometer detection
[4] = S/N = 3, single ion monitoring, sample solution 45° C., tip spacing 0.30 mm

Row | Structure (SMILES) | Detection limit [2] | Detection limit [1, 4] | further results
1 | Cl/C=C/Cl [trans-dichloroethane] |  |  | Detection limit ([1]; single ion monitoring, sample solution 45° C.): 30 ppt
2 | CC(Cl)Cl [1,1-dichloroethane] | 0.5 ppb |  | 
3 | CCCl [chloroethane] | 2 ppb |  | 
4 | Cl/C=C/Cl [trans-1,2 dichloroethene] |  | 0.030 ppb | detection limits ([3]; aqueous solution): ≤ 30 parts per trillion; limits of quantitation ([3]; aqueous solution): ≤ 100 ppt
5 | CC(C)=O [acetone] |  | 20 ppb | 
6 | C=COCCCl [2-chloroethylvinylether] | 2 ppb |  | 
7 | CBr [bromomethane] | 1 ppb |  | 
8 | ClCC(Cl)Cl [1,1,2-trichloroethane] | 2 ppb |  | 
9 | Clc1ccccc1 [chlorobenzene] |  | 0.100 ppb | detection limits ([3]; aqueous solution): ≤ 30 parts per trillion; limits of quantitation ([3]; aqueous solution): ≤ 100 ppt
10 | ClC(Cl)(Cl)Cl [tetrachloromethane] | 2 ppb | 0.200 ppb | 
11 | ClC(Cl)Cl [trichloromethane] |  | 0.300 ppb | ratio of the signal intensities due to chloroform and helium (maximum) ([1]; 250 ppm chloroform, helium 25 mL/min, spacing of 0.5 and 0.4 mm): 7.0; ratio of the signal intensities due to chloroform and helium ([1]; 250 ppm chloroform, helium 25 mL/min, tip spacings larger than 3 mm): 0.14
12 | CCC(C)=O [2-butanone] |  |  | detection limits ([3]; polar compounds, ambient temperature): less than 100 ppb
13 | CC(=O)O [acetic acid] |  |  | Detection limit ([1]; less volatile, more polar compounds, 45° C.): 5 ppm
14 | c1ccccc1 [benzene] |  |  | detection limits ([3]; aqueous solution): ≤ 30 parts per trillion; limits of quantitation ([3]; aqueous solution): ≤ 100 ppt
15 | FC(Cl)(Cl)Cl [trichlorofluoromethane] | 2 ppb |  | 
